Measured values: patent US9963433B2, “Anticancer drugs including the chemical structures of an androgen receptor ligand and a histone deacetylase inhibitor” (Wayne State University, priority 2016, dated 2018)

Legend:
[1] = tested on: TMPRSS2 mRNA (AR target gene) in C4-2 cells; test: Inhibition of R1881 activation of TMPRSS2 mRNA in C4-2 cells; format: cell-based; settings: hormone depleted 96 h, R1881 1 nM, compound 1-10 μM, 48 h, FIG. 3B
Experimental: (§1) Cell Culture and Reagents. LNCaP and 22Rv1 cell lines were from American Type Culture Collection (Manassas, Va.). C4-2 cells were kindly provided by Dr. Edwin Sanchez (University of Toledo). […] R1881 was kindly provided by Dr. Stephan Patrick (Karmanos Cancer Institute). All experiments were conducted using phenol-red free growth media.
(§2) RNA isolation, Reverse Transcription, and Real Time PCR. Total RNA was isolated from cells using the RNeasy Mini Kit (Qiagen). Reverse transcription PCR was then performed using 500 ng of total RNA with random primers and using the high-capacity complementary DNA Archive kit (Applied Biosystems). The complementary DNA from this reaction was measured using quantitative real time PCR using the StepONE Plus Real Time PCR system (Life Technologies Corporation, Carlsbad, Calif.). All reactions were performed in triplicate and normalized to glyceraldehyde-3-phosphate-dehydrogenase values in the same samples.

[2] = tested on: KLK3 mRNA (AR target gene) in C4-2 cells; test: Inhibition of R1881 activation of KLK3 mRNA in C4-2 cells; format: cell-based; settings: hormone depleted 96 h, R1881 1 nM, compound 1-10 μM, 48 h, FIG. 3A
Experimental: as §1, §2

SMILES: O=C(CCCCCCC(=O)Nc1ccccc1)NO [SAHA, suberanilohydroxamic acid, reference compound]
- inhibition of activation of TMPRSS2 by R1881 [1]: partially inhibited
- inhibition of activation of KLK3 by R1881 [2]: partially inhibited
